Source: article PMC9954792
No constants are given. Whether binding was seen depends on the method and setting. For some assays here: Binding seen in cells or lysates may run through a third protein. Some binding calls cover weakened binding; strength is not graded here.

By UniProt entry, the sequences of proteins in these tests, tags left out. Where a name states a change or a piece, a line headed by the entry shows the natural chain unless it says otherwise. Residues count along the entry.
UniProt P02545: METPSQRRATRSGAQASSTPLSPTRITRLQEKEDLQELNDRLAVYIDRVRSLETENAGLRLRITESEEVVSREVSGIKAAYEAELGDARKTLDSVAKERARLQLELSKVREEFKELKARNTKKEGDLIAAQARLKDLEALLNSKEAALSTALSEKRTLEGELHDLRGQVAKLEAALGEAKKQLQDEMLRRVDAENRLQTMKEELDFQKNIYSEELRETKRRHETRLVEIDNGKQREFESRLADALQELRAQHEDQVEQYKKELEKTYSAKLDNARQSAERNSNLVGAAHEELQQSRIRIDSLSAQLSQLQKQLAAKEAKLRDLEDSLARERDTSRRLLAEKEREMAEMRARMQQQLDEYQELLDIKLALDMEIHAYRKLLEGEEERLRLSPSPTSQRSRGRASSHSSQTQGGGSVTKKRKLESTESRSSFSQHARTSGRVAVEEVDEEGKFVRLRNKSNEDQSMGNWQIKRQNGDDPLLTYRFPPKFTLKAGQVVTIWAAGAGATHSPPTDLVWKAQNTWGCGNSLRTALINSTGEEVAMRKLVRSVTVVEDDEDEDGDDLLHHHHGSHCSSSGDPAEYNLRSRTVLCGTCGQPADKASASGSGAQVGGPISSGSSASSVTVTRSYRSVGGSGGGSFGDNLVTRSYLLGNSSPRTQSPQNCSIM
GST fusion of full-length lamin A (amino acids 1-646): residues 1-646 of P02545
GST fusion of truncated lamin A, C-terminal domain (amino acids 384-646): residues 384-646 of P02545
UniProt P49841: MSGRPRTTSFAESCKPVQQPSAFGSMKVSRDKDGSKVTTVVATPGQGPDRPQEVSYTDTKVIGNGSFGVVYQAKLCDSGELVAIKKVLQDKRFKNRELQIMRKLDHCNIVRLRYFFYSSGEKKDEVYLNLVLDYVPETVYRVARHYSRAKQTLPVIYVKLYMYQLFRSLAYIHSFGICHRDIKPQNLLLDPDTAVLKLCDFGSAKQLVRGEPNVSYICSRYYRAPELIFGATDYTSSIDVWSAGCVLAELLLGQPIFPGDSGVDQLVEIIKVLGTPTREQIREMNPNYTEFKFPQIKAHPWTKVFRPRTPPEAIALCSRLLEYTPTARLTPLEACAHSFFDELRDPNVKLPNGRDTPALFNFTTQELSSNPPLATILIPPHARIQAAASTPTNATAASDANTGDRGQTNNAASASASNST
UniProt P68400: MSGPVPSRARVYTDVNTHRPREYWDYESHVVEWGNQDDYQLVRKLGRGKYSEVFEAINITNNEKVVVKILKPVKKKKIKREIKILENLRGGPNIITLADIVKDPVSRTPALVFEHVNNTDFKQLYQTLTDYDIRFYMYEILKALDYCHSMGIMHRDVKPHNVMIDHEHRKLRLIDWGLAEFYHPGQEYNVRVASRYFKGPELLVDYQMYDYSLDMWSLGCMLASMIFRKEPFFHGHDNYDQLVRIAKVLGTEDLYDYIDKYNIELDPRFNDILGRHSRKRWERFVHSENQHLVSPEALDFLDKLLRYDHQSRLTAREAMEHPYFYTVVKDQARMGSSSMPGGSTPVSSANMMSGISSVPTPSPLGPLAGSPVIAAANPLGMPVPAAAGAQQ

What was measured:
FLAG-lamin A = FLAG-lamin A (UniProt P02545); assay: co-IP; 293T cells (HEK293 in the legends) co-transfected with tagged constructs; IP with anti-HA or anti-FLAG antibody; lysis buffer 20 mM Tris-HCl pH 7.5, 250 mM NaCl, 0.1 mM EDTA, 10% glycerol, 0.1% NP-40; 4 °C overnight; Western blot
HA-GSK3β = HA-GSK3β (UniProt P49841); assay: as above
[1] = target: GST fusion of full-length lamin A (amino acids 1-646) (UniProt P02545); assay: pull-down; 1 µg GST fusion protein immobilised on Glutathione Sepharose 4B beads, incubated with 6× His-tagged GSK3β at 4 °C overnight in 50 mM Tris-HCl pH 7.5, 0.2 mM EDTA, 150 mM NaCl, 0.1% NP-40; four washes; Western blot; both purified
[2] = target: GST fusion of truncated lamin A, C-terminal domain (amino acids 384-646) (UniProt P02545); assay: as above

Q: With “HA-GSK3β (from UniProt P49841 1-420) (enzyme)” as the substance, how does the binding (FLAG-lamin A) read?
A: The binding was “binds”.

Q: How did the binding (FLAG-lamin A) turn out when “HA-CK2α (from UniProt P68400 1-391) (enzyme)” was run?
A: The binding was “binds”.

Q: For “FLAG-lamin A (from UniProt P02545 1-646)”, which binding (HA-GSK3β) is on record?
A: Its binding is “binds”.

Q: What does the source list for “6× His-tagged GSK3β (from UniProt P49841 1-420) (enzyme)”?
A: binding [1]: binds; binding [2]: binds
